Data published in publication PMC5839386.
Results are given in words; binding and its absence hold for the method and conditions named. Binding seen in cells or lysates may run through a third protein. Some binding calls cover weakened binding; strength is not graded here. Tags and fused reporters may be left off the sequences shown.

Sequences of proteins named here, by UniProt entry; tags and fusion partners are left off.
UniProt Q9Y5K6: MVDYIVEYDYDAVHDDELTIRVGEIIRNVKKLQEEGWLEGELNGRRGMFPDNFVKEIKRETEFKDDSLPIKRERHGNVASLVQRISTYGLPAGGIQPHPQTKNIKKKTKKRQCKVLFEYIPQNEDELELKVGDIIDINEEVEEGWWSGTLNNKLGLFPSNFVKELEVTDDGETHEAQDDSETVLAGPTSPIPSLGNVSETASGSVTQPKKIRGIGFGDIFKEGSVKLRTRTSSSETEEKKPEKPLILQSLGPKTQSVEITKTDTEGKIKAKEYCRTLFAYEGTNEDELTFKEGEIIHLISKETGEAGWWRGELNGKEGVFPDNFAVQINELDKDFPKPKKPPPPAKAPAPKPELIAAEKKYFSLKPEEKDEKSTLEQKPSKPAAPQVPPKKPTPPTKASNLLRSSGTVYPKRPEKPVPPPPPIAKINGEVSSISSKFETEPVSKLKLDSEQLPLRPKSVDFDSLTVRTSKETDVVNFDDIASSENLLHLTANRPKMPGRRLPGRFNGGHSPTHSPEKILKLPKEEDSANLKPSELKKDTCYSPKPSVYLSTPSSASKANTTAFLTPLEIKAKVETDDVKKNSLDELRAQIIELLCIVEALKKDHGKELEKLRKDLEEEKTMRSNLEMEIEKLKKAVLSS

B1: V5-tagged full-length proto-oncogenic form of human Dbl (protein, UniProt P10911 1-925)
chain: MAEANPRRGKMRFRRNAASFPGNLHLVLVLRPTSFLQRTFTDIGFWFSQEDFMLKLPVVMLSSVSDLLTYIDDKQLTPELGGTLQYCHSEWIIFRNAIENFALTVKEMAQMLQSFGTELAETELPDDIPSIEEILAIRAERYHLLKNDITAVTKEGKILLTNLEVPDTEGAVSSRLECHRQISGDWQTINKLLTQVHDMETAFDGFWEKHQLKMEQYLQLWKFEQDFQQLVTEVEFLLNQQAELADVTGTIAQVKQKIKKLENLDENSQELLSKAQFVILHGHKLAANHHYALDLICQRCNELRYLSDILVNEIKAKRIQLSRTFKMHKLLQQARQCCDEGECLLANQEIDKFQSKEDAQKALQDIENFLEMALPFINYEPETLQYEFDVILSPELKVQMKTIQLKLENIRSIFENQQAGFRNLADKHVRPIQFVVPTPENLVTSGTPFFSSKQGKKTWRQNQSNLKIEVVPDCQEKRSSGPSSSLDNGNSLDVLKNHVLNELIQTERVYVRELYTVLLGYRAEMDNPEMFDLMPPLLRNKKDILFGNMAEIYEFHNDIFLSSLENCAHAPERVGPCFLERKDDFQMYAKYCQNKPRSETIWRKYSECAFFQECQRKLKHRLRLDSYLLKPVQRITKYQLLLKELLKYSKDCEGSALLKKALDAMLDLLKSVNDSMHQIAINGYIGNLNELGKMIMQGGFSVWIGHKKGATKMKDLARFKPMQRHLFLYEKAIVFCKRRVESGEGSDRYPSYSFKHCWKMDEVGITEYVKGDNRKFEIWYGEKEEVYIVQASNVDVKMTWLKEIRNILLKQQELLTVKKRKQQDQLTERDKFQISLQQNDEKQQGAFISTEETELEHTSTVVEVCEAIASVQAEANTVWTEASQSAEISEEPAEWSSNYFYPTYDENEEENRPLMRPVSEMALLY
B2: V5-tagged truncated oncogenic form of human Dbl (domain or fragment, UniProt P10911 498-925)
chain: HVLNELIQTERVYVRELYTVLLGYRAEMDNPEMFDLMPPLLRNKKDILFGNMAEIYEFHNDIFLSSLENCAHAPERVGPCFLERKDDFQMYAKYCQNKPRSETIWRKYSECAFFQECQRKLKHRLRLDSYLLKPVQRITKYQLLLKELLKYSKDCEGSALLKKALDAMLDLLKSVNDSMHQIAINGYIGNLNELGKMIMQGGFSVWIGHKKGATKMKDLARFKPMQRHLFLYEKAIVFCKRRVESGEGSDRYPSYSFKHCWKMDEVGITEYVKGDNRKFEIWYGEKEEVYIVQASNVDVKMTWLKEIRNILLKQQELLTVKKRKQQDQLTERDKFQISLQQNDEKQQGAFISTEETELEHTSTVVEVCEAIASVQAEANTVWTEASQSAEISEEPAEWSSNYFYPTYDENEEENRPLMRPVSEMALLY

Key:
[1] = target: Flag-tagged CD2AP (control protein) (UniProt Q9Y5K6); experiment: co-IP; HEK293T cells co-transfected with Flag- and V5-tagged proteins; lysis in IP buffer (1% Triton-X 100, 20 mM Tris pH 7.5, 50 mM NaCl); anti-FLAG M2 affinity beads, 4°C; blot with anti-V5
[2] = target: Flag-tagged human Rheb (human) (UniProt Q15382); experiment: as above

Binder | binding [1] | binding [2]
B1 | no binding | binds
B2 | no binding | binds
